Some of the results follow. Further columns of the screen follow, without active or inactive calls. The list favours compounds with an active or inconclusive main result. The note in brackets gives the kind of curve behind each potency; many fits are weak.
Test: qHTS Assay for Lipid Storage Modulators in Drosophila S3 Cells;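 on cell number change: cells counted by Cell Tracker Red CMTPX staining in the red channel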
Details: BODIPY lipid droplet fluorescence, 18-24 h; for cell number change: measured here: cell count max response, cells fed with added oleic acid
In short: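 Drosophila S3 cells loaded with oleic acid (400 uM, as added) and compounds at several concentrations; lipid droplets imaged by 488-nm laser-scanning cytometry, 500–530 nm intensity and object ratio to cell channel. Percent activity normalized to 20 uM Triacsin C.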

[1] = measured here: lipid fluorescence (Fed channel) AC50, cells fed with added oleic acid
[2] = measured here: cell number channel AC50, cells fed with added oleic acid

Row | Structure (SMILES) | cell number change | AC50 [1] | AC50 [2]
1 | COc1ccc(CNC(=O)C2CCCN(S(=O)(=O)c3cccc4nsnc34)C2)cc1 (centres undefined) | 23% | 5.8 µM [rising, partial curve] | –
2 | COc1ccc(OC)c(Nc2nc(-c3cccs3)cs2)c1 | 22% | 4.61 µM [rising, partial curve] | –
3 | CC(=O)NC(C)c1nc2ccccc2n1CC(=O)N1C(C)CCCC1C (centres undefined) | – | 0.231 µM [falling, full curve] | 0.58 µM [falling, partial curve]
4 | CCN(CC)S(=O)(=O)c1ccc(C)c(NC(=O)COc2ccc(Cl)cc2Br)c1 | -38.7% | 9.2 µM [falling, partial curve] | 4.61 µM [falling, partial curve]
5 | CCOC(=O)C1CCCCN1C(=O)CCn1nnnc1CN1CCOCC1 (centres undefined) | -4.28% | – | –
6 | COc1cccc(/C=C/C(=O)OCC(=O)N2c3ccccc3CC2C)c1OC (centres undefined) | 92.3% | – | 18.4 µM [rising, partial curve]
7 | CCCOc1ccc(CNC(=S)NCc2ccc(OC(C)C)cc2)cc1 | 1.99% | 0.184 µM [rising, full curve] | –
8 | O=c1[nH]c(=O)n(-c2ccc(F)cc2)c2c1C(C(F)(F)F)(C(F)(F)F)N=C(c1ccc(F)cc1)N2 | 20.9% | 23.1 µM [falling, partial curve, poor fit] | –
9 | O=C1CC(NS(=O)(=O)c2cccnc2)CN1c1cccc(F)c1 (centres undefined) | 49.9% | 32.6 µM [rising, partial curve] | 11.6 µM [rising, partial curve]
10 | COc1cc(NC(=O)Nc2c(C)n(C)n(-c3ccccc3)c2=O)cc(OC)c1OC | -8.03% | 6.51 µM [rising, single point] | –
11 | O=S(=O)(NCC(c1ccco1)N1CCN(c2ccccc2F)CC1)c1ccc(F)cc1 (centres undefined) | 5.75% | – | –
12 | CCOc1nc(NC2CCCCC2)nc(NC(C)(C)C)n1 | -41.3% | 18.4 µM [falling, single point] | 23.1 µM [falling, single point]
13 | O=C(NCC(=O)N(c1ccccc1)C(C(=O)NCC1CCCO1)c1ccccc1)c1ccco1 (centres undefined) | -12.4% | – | –
14 | O=C(NC(=S)Nc1ccccc1N1CCOCC1)c1sc2ccccc2c1Cl | 93.6% | 6.51 µM [falling, single point] | 7.31 µM [falling, single point]
15 | O=C(CSc1ncn[nH]1)NC1CCCc2ccccc21 (centres undefined) | – | – | 0.058 µM [rising, full curve, poor fit]
16 | C=CCn1c(NCc2ccc(OC)cc2O)nc2ccccc21 | 12.7% | 0.731 µM [rising, full curve, poor fit] | –
17 | COc1cc(CCC(=O)OCC(=O)N(CC(C)C)C2CCS(=O)(=O)C2)cc(OC)c1OC (centres undefined) | 50.8% | 32.6 µM [falling, single point] | 29.1 µM [rising, single point]
18 | COC(=O)C1=C(C)Nc2ncnn2C1c1ccc(OC(=O)c2ccccc2)cc1 (centres undefined) | -29% | 0.0259 µM [falling, full curve, poor fit] | 1.3 µM [falling, full curve, poor fit]
19 | CCN(CC)CCCNC(=O)Cc1c(C(=O)O)n(C)c2ccccc12 | 1.9% | 2.91 µM [falling, single point] | –

Row | Structure (SMILES) | cell number change | AC50 [1] | AC50 [2]
20 | O=C(O)CC1S/C(=N/N=C/c2ccc(-c3ccccc3[N+](=O)[O-])o2)NC1=O (centres undefined) | 14.2% | 16.4 µM [rising, single point] | –
21 | Cc1ccc(-c2csc3ncnc(N4CCN(C(=O)c5ccco5)CC4)c23)cc1 | 2.81% | 2.06 µM [rising, partial curve, poor fit] | –
22 | Cc1cc(C(=O)CN2C(=O)NC3(CCCc4ccccc43)C2=O)c(C)n1Cc1ccco1 (centres undefined) | -13.5% | 16.4 µM [rising, single point] | –
23 | CC1(C)CC(=O)C/C(=N\NC(=O)c2cccs2)C1 | -6.58% | 0.651 µM [falling, full curve] | –
24 | CCOc1ccc(/C(O)=C2/C(=O)C(=O)N(CCOCCO)C2c2cccnc2)cc1 (centres undefined) | -1.61% | 4.11 µM [falling, single point] | –
25 | Cc1ccc(C)c(N2CCN(c3ncnc4c3cnn4-c3ccccc3)CC2)c1 | 50.5% | – | 20.6 µM [rising, single point]
26 | CCNC(=S)Nc1cccc(F)c1C | -0.352% | – | –
27 | COc1cccc(CN(C(=O)CN2C(=O)c3ccccc3S2(=O)=O)C(C(=O)NCC2CCCO2)c2ccco2)c1 (centres undefined) | 14.1% | 0.0058 µM [rising, full curve, poor fit] | –
28 | CCC1CCCCN1C(=O)COc1ccc2c(c1)OCO2 (centres undefined) | 6.94% | 23.1 µM [falling, single point] | –
29 | COC(=O)c1[nH]c2cccc(OC)c2c1NC(=O)CCN1CCN(c2ccccc2F)CC1 | 27.4% | – | –
30 | COC(=O)c1ccccc1NC(=O)c1noc2c1CCCC2 | 41.1% | 6.51 µM [rising, single point] | 2.06 µM [rising, partial curve]
31 | Cc1ccc(CNC(=O)c2ccccc2N(C)S(C)(=O)=O)cc1 | 171% | 29.1 µM [rising, partial curve] | 29.1 µM [rising, partial curve]
32 | Cc1ccc(NC(=O)CN2CCN(C)CC2)cc1Br | 3.16% | 18.4 µM [rising, single point] | –
33 | COc1cccc(-c2nc(CS(=O)CC(=O)NCc3ccccc3)c(C)o2)c1 (centres undefined) | 9.59% | – | 6.51 µM [rising, single point]
34 | CCOC(=O)c1ccc(NC(=O)CSc2nnc(CNC(=O)c3ccccc3F)o2)cc1 | 35.2% | 0.731 µM [rising, single point] | 1.03 µM [rising, full curve]
35 | c1ccc2sc(C3CCN(Cc4nnnn4Cc4ccc5c(c4)OCO5)CC3)nc2c1 | -33.4% | 29.1 µM [falling, single point] | 18.4 µM [falling, single point]
36 | COc1ccc(NC(=O)Nc2ccc(C(=O)N3CCOCC3)cc2)cc1 | 131% | 20.6 µM [rising, single point] | 13 µM [rising, partial curve]
37 | CSCCC(NC(N)=O)C(=O)NCc1ccccc1Cl (centres undefined) | 21.2% | – | –
38 | O=S(=O)(c1ccccc1)c1nc(-c2ccco2)oc1NCc1ccccc1 | – | 2.59 µM [rising, partial curve] | 2.06 µM [rising, partial curve]

Entries of single compounds from above:
Cc1ccc(CNC(=O)c2ccccc2N(C)S(C)(=O)=O)cc1 is listed with cell number change: 171%; AC50 [1]: 29.1 µM [rising, partial curve]; AC50 [2]: 29.1 µM [rising, partial curve]
O=C(O)CC1S/C(=N/N=C/c2ccc(-c3ccccc3[N+](=O)[O-])o2)NC1=O (centres undefined) is listed with cell number change: 14.2%; AC50 [1]: 16.4 µM [rising, single point]
COc1cccc(CN(C(=O)CN2C(=O)c3ccccc3S2(=O)=O)C(C(=O)NCC2CCCO2)c2ccco2)c1 (centres undefined) is listed with cell number change: 14.1%; AC50 [1]: 0.0058 µM [rising, full curve, poor fit]
COc1ccc(NC(=O)Nc2ccc(C(=O)N3CCOCC3)cc2)cc1 is listed with cell number change: 131%; AC50 [1]: 20.6 µM [rising, single point]; AC50 [2]: 13 µM [rising, partial curve]

Next entries follow:

Row | Structure (SMILES) | cell number change | AC50 [1] | AC50 [2]
39 | Cc1ccc(C)c(CN2CCC(CNC(=O)Nc3ccc(Cl)cc3)CC2)c1 | -45.7% | 29.1 µM [falling, single point] | 23.1 µM [falling, single point]
40 | Cc1ccc(CNC(=O)CCC2CCCN(Cc3ccc4cccc(F)c4n3)C2)o1 (centres undefined) | 22.8% | 3.26 µM [rising, full curve] | –
41 | COc1cc(C(=S)N2CCOCC2)ccc1OS(=O)(=O)c1ccc(Cl)cc1 | 14.5% | – | –
42 | COc1ccccc1/C=C/C=N/NC(=O)c1cccs1 | 36.2% | 29.1 µM [rising, single point] | 29.1 µM [rising, single point]
43 | COc1ccc(S(=O)(=O)Nc2ccccc2OC)cc1NC(=O)Cc1cccs1 | 29.7% | 2.59 µM [rising, single point] | –
44 | Cc1ccc(S(=O)(=O)NC2(C(=O)O)CCCCC2)cc1 | -41.3% | 0.82 µM [falling, full curve] | 0.0366 µM [falling, full curve, poor fit]
45 | COc1ccc(O)c(/C=c2/sc3nc4cc(C)c(C)cc4n3c2=O)c1 | -13.1% | 0.58 µM [rising, full curve, poor fit] | –
46 | CCOC(=O)Cc1csc(NC(NC(=O)CC)(C(F)(F)F)C(F)(F)F)n1 | 5.17% | 0.731 µM [falling, single point] | –
47 | O=S(=O)(c1ccc(S(=O)(=O)N2CCCC2)cc1)N1CCCCC1 | -1.28% | 0.116 µM [falling, full curve, poor fit] | –
48 | C=CCN1C(=O)C(O)(CC(=O)c2ccc(Cl)cc2)c2ccccc21 (centres undefined) | -9.37% | 0.00461 µM [falling, full curve, poor fit] | –
49 | COc1cc(C(=O)Nc2ccc3c(c2)ncn3C(C)(C)C)cc(OC)c1OC | -4.21% | 29.1 µM [rising, single point] | –
50 | CCOc1cc(/C=C(\CC(=O)O)c2nc3ccccc3s2)ccc1OC | -95.1% | 18.4 µM [falling, partial curve] | 29.1 µM [falling, single point]
51 | Cc1cc(N2CCCN(C)CC2)nc2cc(Cl)ccc12 | -20.1% | 29.1 µM [rising, single point] | –
52 | c1ccc(C(c2ccccc2)c2nc(-c3cccnc3)no2)cc1 | -10.6% | 2.06 µM [falling, partial curve] | –
53 | NC(=O)CC(NC(=O)Cc1ccc(Cl)cc1)c1ccc(NC2CCCCCC2)c([N+](=O)[O-])c1 (centres undefined) | -19.2% | 9.2 µM [falling, single point] | –
54 | CCOC(=O)c1c(NC(=O)C(C)Sc2nnc(C)c(=O)[nH]2)sc2c1CCCC2 (centres undefined) | – | – | 2.59 µM [rising, single point]
55 | COc1nccnc1NS(=O)(=O)c1ccc(N/C=C2\CCCCC2=O)cc1 | -21.3% | 0.0164 µM [falling, full curve, poor fit] | 0.058 µM [falling, full curve]
56 | CCOC(=O)/C(=N/O)C1=NC(C)(C)Cc2cc(C)c(C)cc21 | 17.2% | 25.9 µM [rising, single point] | –
